These are yes or no findings as the source states them, for the method shown. For part of these data: Binding can be weak; no strength is given. Where a sequence is shown, tags or fusion partners need not be part of it. For part of these data: In cells and extracts the contact can be indirect.
Key:
[1] = target: NS5A with domain II deleted, in pGBKT7 (hepatitis C virus genotype 2a (strain not named)); assay: two-hybrid; Yeast mating: AH109 with NS5A constructs in pGBKT7, Y187 with CIDEB constructs in pGADT7; growth on SD/-Trp/-Leu/-His/-Ade and SD/-Trp/-Leu/-His with 2 mM 3-AT, 30 °C, 5 to 8 d
[2] = target: NS5A with domain III deleted, in pGBKT7 (hepatitis C virus genotype 2a (strain not named)); assay: as above
[3] = target: NS5A-EGFP of HCV-Jc1EGFP (hepatitis C virus Jc1 (adapted HCV-Jc1EGFP)); assay: co-IP; HCV-Jc1EGFP-infected Huh7.5.1 cells transfected with pReceiver-Flag-CIDEB; exogenous Flag-CIDEB with NS5A-EGFP of the virus
[4] = target: Flag-NS5A (from HCV-JFH1, genotype 2a) (hepatitis C virus JFH1 (genotype 2a)); assay: co-IP; HEK293T cells co-transfected with tagged CIDEB and a tagged HCV protein; lysis buffer 50 mM Tris pH 7.4, 150 mM NaCl, 0.5% NP-40, 1.0 mM EDTA; IP with anti-Flag, anti-HA or anti-GFP antibody and protein A/G beads at 4 °C; blot with anti-HA, anti-Flag or anti-NS3
[5] = target: Flag-Core (hepatitis C virus (strain not stated)); assay: as above

B1: CIDEB in pGADT7 (activation-domain fusion) (protein, UniProt Q9UHD4 1-219)
chain: MEYLSALNPSDLLRSVSNISSEFGRRVWTSAPPPQRPFRVCDHKRTIRKGLTAATRQELLAKALETLLLNGVLTLVLEEDGTAVDSEDFFQLLEDDTCLMVLQSGQSWSPTRSGVLSYGLGRERPKHSKDIARFTFDVYKQNPRDLFGSLNVKATFYGLYSMSCDFQGLGPKKVLRELLRWTSTLLQGLGHMLLGISSTLRHAVEGAEQWQQKGRLHSY
binding [1]: no binding | binding [2]: binds

B2: Flag-CIDEB (in HCV-Jc1EGFP-infected Huh7.5.1 cells) (protein, UniProt Q9UHD4 1-219)
chain: MEYLSALNPSDLLRSVSNISSEFGRRVWTSAPPPQRPFRVCDHKRTIRKGLTAATRQELLAKALETLLLNGVLTLVLEEDGTAVDSEDFFQLLEDDTCLMVLQSGQSWSPTRSGVLSYGLGRERPKHSKDIARFTFDVYKQNPRDLFGSLNVKATFYGLYSMSCDFQGLGPKKVLRELLRWTSTLLQGLGHMLLGISSTLRHAVEGAEQWQQKGRLHSY
binding [3]: binds

B3: HA-CIDEB (Homo sapiens), cell-death-inducing DFFA-like effector B (protein, UniProt Q9UHD4 1-219)
chain: MEYLSALNPSDLLRSVSNISSEFGRRVWTSAPPPQRPFRVCDHKRTIRKGLTAATRQELLAKALETLLLNGVLTLVLEEDGTAVDSEDFFQLLEDDTCLMVLQSGQSWSPTRSGVLSYGLGRERPKHSKDIARFTFDVYKQNPRDLFGSLNVKATFYGLYSMSCDFQGLGPKKVLRELLRWTSTLLQGLGHMLLGISSTLRHAVEGAEQWQQKGRLHSY
binding [4]: binds

B4: CIDEB (tagged form used in Fig. S2a not shown) (protein, UniProt Q9UHD4 1-219)
chain: MEYLSALNPSDLLRSVSNISSEFGRRVWTSAPPPQRPFRVCDHKRTIRKGLTAATRQELLAKALETLLLNGVLTLVLEEDGTAVDSEDFFQLLEDDTCLMVLQSGQSWSPTRSGVLSYGLGRERPKHSKDIARFTFDVYKQNPRDLFGSLNVKATFYGLYSMSCDFQGLGPKKVLRELLRWTSTLLQGLGHMLLGISSTLRHAVEGAEQWQQKGRLHSY
binding [5]: no binding

B5: HA-CIDEB (Mus musculus) (protein, UniProt O70303 1-219)
chain: MEYLSAFNPNGLLRSVSTVSSELSRRVWNSAPPPQRPFRVCDHKRTVRKGLTAASLQELLDKVLETLLLRGVLTLVLEEDGTAVDSEDFFQLLEDDTCLMVLEQGQSWSPKSGMLSYGLGREKPKHSKDIARITFDVYKQNPRDLFGSLNVKATFYGLYSMSCDFQGVGPKRVLRELLRWTSSLLQGLGHMLLGISSTLRHVVEGADRWQWHGQRHLHS
binding [4]: no binding
